Measured values: article PMC11616081, “Structural basis of archaeal FttA-dependent transcription termination” (Nature, 2024)
Results are given in words; binding and its absence hold for the method and conditions named. Binding calls can cover weak binding; strength is not graded here.

Columns and labels:
Assay in all cases: cryo-EM structure; 4 μM Tko RNAP, 8 μM Spt4, 8 μM Spt5 and 5 μM nucleic acid scaffold (TEC[44] or TEC[52]) in 20 mM HEPES-NaOH pH 7.5, 30 mM KCl, 10 mM magnesium acetate, 1 mM dithiothreitol, 10 min at 22 °C; then FttA(H255A/H591A) added, 10 min at 22 °C and 5 min at 42 °C; CHAPSO added before freezing; single-particle reconstruction at 2.5 Å (TEC[44]) and 2.2 Å (TEC[52]); both purified
[1] = target: Tko RNAP subunit RpoA′ (Thermococcus kodakarensis)
[2] = target: Tko RNAP (Thermococcus kodakarensis)
[3] = target: Tko RNAP subunit RpoB (Thermococcus kodakarensis)
[4] = target: Tko RNAP stalk subunit RpoF (Thermococcus kodakarensis)
[5] = target: Tko RNAP stalk subunit RpoE (Thermococcus kodakarensis)

Measured: binding

B1: Tko Spt5 (natural protein, Thermococcus kodakarensis)
chain: MAEGKIFTVSVTVGQETTTANLIYSKAKTYNLPLYAILSPSKVKGYIFIEAPNKSAVEEAIRGIRHAKRVLPGEIPFSEIEHFLEEKPAVSGFEPGDIVELIAGPFKGEKAKVVRVDESKDEIVVELVSSVVPIPVTVRGEYVRLISKRQKE
notes: Spt5, Thermococcus kodakarensis; NGN domain and KOW domain; residues 1-3 not fitted in the map; Used as Spt4/5 (Spt4-Spt5 complex) in the biochemical assays; also called NusG/Spt5
binds: [1] | [2] | [3]

B2: Tko FttA(H255A/H591A) (enzyme, Thermococcus kodakarensis)
chain: MIRRETFVDDILKEIREIIVQMVPREAGITDVEFEGPELVIYVKNPEAMMKDGELIKNLAKVLKKRISVRPDPDILLPPEKAEELIKQLVPPEAEITNISFDPSVGEVLIEARKPGLVIGKNGETLRLITQKVHWAPRVVRTPPIQSQTIYSIRSILQTESKDRRKFLRQVGRNIYRKSEYKSRWIRITGLGGFREVGRSALLVQTDESYVLVDFGVNIAALKDPTKAYPHFDAPEFRYVLDEGLLDAIIITHAALDHSGMLPYLFRYKLFDGPIYTTPPTRDLMTLLQQDFIEIQHMNGVEPLYRPKDIKEVIKHTITLDYGEVRDIAPDIRLTLHNAGHILGSSIVHLHIGNGLHNIAITGDFKFIPTRLFEPAVSRFPRLETLVMESTYGGSNDYQMPREEAEKRLIEVIHQTLKRGGKVLIPAMAVGRAQEIMMVLEEYARVGGIEVPIYLDGMIWEATAIHTAYPEYLSKHIREQIFHEGYNPFLNPIFKSVANSRERQDIIDSGEPAIIIATSGMLVGGPSVEYFKQLAPDPKNSIIFVSYQAEGTLGRQVQRGLREIPIVGEDGRTEVINVNMEVHTIDGFSGAADRRELMSYVARVRPRPERIITVHGEAHKCLDLSSSIHKKFGISTRAPNNLDAIRLK
notes: FttA (aCPSF, aCPSF1), Thermococcus kodakarensis; domains KH1 6-75, KH2 76-144, MβLa 198-428, βCASP 433-557, MβLb 576-639; residues 1-3 of FttA^prox not fitted in the map; Dimer in the structure (protomers FttA^prox and FttA^dist); also called FttA^prox; FttA^dist
binds: [1] | [2] | [4] | [3] | [5]
